Source: article PMC4488664, “An Inactive Geminin Mutant That Binds Cdt1” (Genes, 2015)
These are yes or no findings as the source states them, for the method shown. In cells and extracts the contact can be indirect. Some results given as binding are weak or reduced against the parent protein; the word gives no strength. Where a sequence is shown, tags or fusion partners need not be part of it.

Amino acid sequences for entries named in this document (tags omitted). A change or cut given only in a name is not applied to a line headed by its entry.
UniProt O95251: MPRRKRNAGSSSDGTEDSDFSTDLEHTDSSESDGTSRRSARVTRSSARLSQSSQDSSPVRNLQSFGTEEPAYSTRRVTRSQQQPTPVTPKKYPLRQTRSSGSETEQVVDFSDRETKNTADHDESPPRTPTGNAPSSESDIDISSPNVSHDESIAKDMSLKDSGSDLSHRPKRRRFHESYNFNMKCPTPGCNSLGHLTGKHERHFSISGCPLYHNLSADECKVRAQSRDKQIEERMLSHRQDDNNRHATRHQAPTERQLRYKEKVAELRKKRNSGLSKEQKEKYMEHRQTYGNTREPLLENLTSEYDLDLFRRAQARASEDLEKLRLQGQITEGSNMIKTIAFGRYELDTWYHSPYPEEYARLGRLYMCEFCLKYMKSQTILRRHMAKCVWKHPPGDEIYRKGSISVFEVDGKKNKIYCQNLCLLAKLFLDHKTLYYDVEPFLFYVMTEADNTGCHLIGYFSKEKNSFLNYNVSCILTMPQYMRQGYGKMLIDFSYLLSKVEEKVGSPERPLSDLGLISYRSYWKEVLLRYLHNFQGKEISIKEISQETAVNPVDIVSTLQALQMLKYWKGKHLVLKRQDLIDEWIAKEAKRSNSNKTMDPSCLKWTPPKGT
UniProt P49717: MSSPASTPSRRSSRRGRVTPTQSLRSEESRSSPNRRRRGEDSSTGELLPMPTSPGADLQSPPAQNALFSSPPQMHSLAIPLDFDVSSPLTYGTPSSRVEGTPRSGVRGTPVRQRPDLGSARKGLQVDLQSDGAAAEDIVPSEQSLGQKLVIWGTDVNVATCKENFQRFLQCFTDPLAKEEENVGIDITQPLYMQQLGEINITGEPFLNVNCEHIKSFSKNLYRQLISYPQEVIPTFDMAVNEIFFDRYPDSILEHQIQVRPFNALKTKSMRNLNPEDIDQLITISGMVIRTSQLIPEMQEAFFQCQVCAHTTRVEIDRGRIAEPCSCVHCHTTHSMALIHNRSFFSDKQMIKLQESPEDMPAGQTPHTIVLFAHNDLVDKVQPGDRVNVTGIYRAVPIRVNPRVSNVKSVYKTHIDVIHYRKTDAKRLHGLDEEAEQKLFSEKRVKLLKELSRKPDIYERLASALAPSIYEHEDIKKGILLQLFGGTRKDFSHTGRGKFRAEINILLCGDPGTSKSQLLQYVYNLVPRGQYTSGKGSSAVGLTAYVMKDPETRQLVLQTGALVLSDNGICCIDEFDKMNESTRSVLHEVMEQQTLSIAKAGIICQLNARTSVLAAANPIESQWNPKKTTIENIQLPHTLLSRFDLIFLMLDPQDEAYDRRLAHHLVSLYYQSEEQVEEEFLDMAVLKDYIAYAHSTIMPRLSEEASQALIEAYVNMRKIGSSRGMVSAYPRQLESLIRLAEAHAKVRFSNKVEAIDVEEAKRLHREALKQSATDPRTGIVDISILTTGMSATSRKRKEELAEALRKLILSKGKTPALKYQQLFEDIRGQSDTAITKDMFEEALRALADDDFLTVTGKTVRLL

T1: HA-Cdt1 (UniProt Q9H211)
T1 sequence: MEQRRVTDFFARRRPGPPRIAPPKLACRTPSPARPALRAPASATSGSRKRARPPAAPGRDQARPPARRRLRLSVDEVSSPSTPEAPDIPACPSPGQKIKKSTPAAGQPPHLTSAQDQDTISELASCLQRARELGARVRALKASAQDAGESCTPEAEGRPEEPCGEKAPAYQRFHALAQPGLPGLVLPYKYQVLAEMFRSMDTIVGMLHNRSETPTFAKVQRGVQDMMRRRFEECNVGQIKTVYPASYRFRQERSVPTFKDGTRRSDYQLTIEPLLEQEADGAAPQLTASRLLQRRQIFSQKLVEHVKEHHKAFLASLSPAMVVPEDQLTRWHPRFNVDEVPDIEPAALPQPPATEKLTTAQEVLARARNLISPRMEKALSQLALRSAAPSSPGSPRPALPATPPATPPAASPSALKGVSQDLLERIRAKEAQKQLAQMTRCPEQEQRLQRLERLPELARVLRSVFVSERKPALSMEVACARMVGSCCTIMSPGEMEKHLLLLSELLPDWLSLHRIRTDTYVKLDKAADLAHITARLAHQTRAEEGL

T2: in vitro-translated mouse Myc-Cdt1 (mouse) (UniProt Q8R4E9)
T2 sequence: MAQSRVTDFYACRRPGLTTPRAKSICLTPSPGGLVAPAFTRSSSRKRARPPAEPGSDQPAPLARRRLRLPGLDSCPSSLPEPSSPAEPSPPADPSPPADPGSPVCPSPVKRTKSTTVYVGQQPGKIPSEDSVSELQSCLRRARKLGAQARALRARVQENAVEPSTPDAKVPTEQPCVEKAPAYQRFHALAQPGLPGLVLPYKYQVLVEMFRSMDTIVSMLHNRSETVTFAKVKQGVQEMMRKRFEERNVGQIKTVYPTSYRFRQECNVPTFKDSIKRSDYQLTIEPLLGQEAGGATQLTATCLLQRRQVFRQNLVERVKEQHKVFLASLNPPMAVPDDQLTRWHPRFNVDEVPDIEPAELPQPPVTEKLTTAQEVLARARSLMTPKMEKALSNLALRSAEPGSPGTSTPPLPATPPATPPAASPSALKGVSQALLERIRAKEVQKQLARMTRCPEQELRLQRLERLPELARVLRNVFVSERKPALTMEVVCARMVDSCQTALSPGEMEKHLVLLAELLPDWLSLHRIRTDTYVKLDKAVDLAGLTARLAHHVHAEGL

B1: mouse His6-Geminin^WT, full length (protein, UniProt O88513 1-206)
chain: MNLSMKQKQEGAQENVKNSPVPRRTLKMIQPSADGSLVGRENELPKGLFKRKLWDDQLASQTSSCGPEANENKDVGDLTQEAFDLISKENPSSQYWKEVAEQRRKALYEALKENEKLHKEIEQKDSEIARLRKENKDLAEVAEHVQYMAEVIERLSNEPLDNFESPDSQEFDSEEEAVEYSELEDSGAGTCAEETVSSSTDARPCT
B2: recombinant Geminin^WT (Figure 3A) (protein, UniProt O88513 1-206)
chain: B1 chain

Experiments:
[1] = target: T1, HA-Cdt1; assay: co-IP; lysates of HeLa cells expressing HA-Cdt1 and FLAG-HBO1 precipitated with anti-HA antibody
[2] = target: T2, in vitro-translated mouse Myc-Cdt1 (mouse); assay: co-IP; reticulocyte lysate with in vitro-translated mouse Myc-Cdt1 incubated on ice with recombinant Geminin (5, 10 or 40 µg/mL), then with purified mouse MCM4/6/7 complex (50 ng); anti-Myc 9E10 sepharose, 4 °C; washed with PBS and IP buffer; blotted for MCM4; only the binder purified
[3] = target: HA-Cdt1:FLAG-HBO1 complex (UniProt Q9H211); assay: pull-down; HA-Cdt1:FLAG-HBO1 complex precipitated from HeLa lysate on anti-HA beads, incubated with recombinant mouse Geminin; extensive washing; bound Geminin by immunoblotting; only the binder purified

| Molecule | binding [2] | further results |
| --- | --- | --- |
| FLAG-HBO1 (from UniProt O95251 1-611) (enzyme) |  | binding [1]: binds |
| purified mouse MCM4/6/7 complex (from UniProt P49717 1-862; P97311 1-821; Q61881 1-719) | binds |  |
| B1 |  | binding [3]: binds |
| B2 | binds |  |
